Test results published in patent US20200277385A1.
Residue numbers refer to the chain shown, from its start. These are yes or no findings as the source states them, for the method shown. Some entries that bind do so weakly or less than the wild type.

By UniProt entry, the sequences of proteins in these tests, tags left out. Where a name states a change or a piece, a line headed by the entry shows the natural chain unless it says otherwise.
UniProt Q8WTT0: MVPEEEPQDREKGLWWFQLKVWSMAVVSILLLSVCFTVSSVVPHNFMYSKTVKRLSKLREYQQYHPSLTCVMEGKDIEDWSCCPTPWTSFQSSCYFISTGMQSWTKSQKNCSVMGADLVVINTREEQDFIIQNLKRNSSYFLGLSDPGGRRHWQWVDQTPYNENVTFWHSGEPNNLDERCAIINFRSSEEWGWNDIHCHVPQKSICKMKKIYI

B1: hybrid antibody 122A2H1 (antibody, human IgG1, kappa, V domains shown)
VH: QVQLQQSGAEVVKPGASVKISCKGSGYTFTDYSMHWVKQAHAKSLEWIGVISTYYGDSNYNQKFKGKVTMTVDKSSSTAYMELSRLTSDDTAVYYCARNGNFYVMDYWGQGTLVTVSS
VL: DIQMTQTTSSLSASLGDRVTISCRASQDISNYLNWYQQKPDGTVKLLIYYTSRLHSGVPSRFSGSGSGTDYSLTISNLDQEDIATYFCQQGNTLPWTFGGGTKLEIKR
B2: hybrid antibody 122A2H3 (antibody, human IgG1, kappa, V domains shown)
VH: B1 VH with K38R, H41P, A42G, K43Q, S44G
VL: B1 VL
B3: humanized antibody 122A2H7 (antibody, human IgG1, kappa, V domains shown)
VH: B1 VH with K38R, H41P, A42G, K43Q, S44G
VL: B1 VL with T7S, S22T, R24Q, S56T, F87Y
B4: humanized antibody 122A2H10 (antibody, human IgG1, kappa, V domains shown)
VH: B1 VH with K38R, K74T, T87R
VL: B1 VL with T7S, T8P, L15V, S22T, R24Q, S56T, F87Y
B5: humanized antibody 122A2H15 (antibody, human IgG1, kappa, V domains shown)
VH: B1 VH with K38R, H41P, A42G, K43Q, S44G
VL: B1 VL with T7S, S22T, R24Q, R53N, S56T, D79Q, F87Y
B6: hybrid antibody 122A2H2 (antibody, human IgG1, kappa, V domains shown)
VH: B1 VH with K38R, K74T, T87R
VL: B1 VL
B7: humanized antibody 122A2H14 (antibody, human IgG1, kappa, V domains shown)
VH: B1 VH with K38R, K74T, T87R
VL: B1 VL with T7S, S22T, R24Q, R53N, S56T, D79Q, F87Y
B8: humanized antibody 102E9H13 (antibody, human IgG1, kappa, V domains shown)
VH: QIHLVQSGPELKKPGESVKISCKASGYTFTDYSMHWVKQAPGQGLKWMGWINTETGEPTYADDFKGRFVFSLDTSVSTAYLQINSLKNEDTSTYYCTRNGYYVGYYAMDYWGQGTSVTVSS
VL: QIQLTQSPSFLSASPGDRVTITCSASSSVIYIHWFQQKPGKAPKLWIYSTSYLASGVPSRFSGSGSGTEYTLTISSMQAEDFATYYCQQRRSYPFTFGGGTKLEIKR
B9: hybrid antibody 102E9H1 (antibody, human IgG1, kappa, V domains shown)
VH: B8 VH
VL: QIVLTQSPAIMSASPGEKVTITCSASSSVIYIHWFQQKPGTSPKLWIYSTSYLASGVPARFSGSGSGTSYSLTISRMEAEDAATYYCQQRRSYPFTFGGGTKLEIKR
B10: humanized antibody 102E9H5 (antibody, human IgG1, kappa, V domains shown)
VH: B8 VH
VL: B8 VL with D17E, Q78E
B11: hybrid antibody 102E9H12 (antibody, human IgG1, kappa, V domains shown)
VH: B8 VH with E10D, S17T, Q43K, V69A, D73E, T74S, V76A, Y80F, S85N, Y95F
VL: B8 VL
B12: humanized antibody 102E9H10 (antibody, human IgG1, kappa, V domains shown)
VH: B8 VH with K38R, D62Q
VL: B8 VL with D17E, K41T, E69S, S76R, Q78E
B13: humanized antibody 102E9H9 (antibody, human IgG1, kappa, V domains shown)
VH: B8 VH
VL: B8 VL with D17E, K41T, E69S, S76R, Q78E
B14: hybrid antibody 102E9H8 (antibody, human IgG1, kappa, V domains shown)
VH: B8 VH with E10D, S17T, Q43K, V69A, D73E, T74S, V76A, Y80F, S85N, Y95F
VL: B8 VL with D17E, K41T, E69S, S76R, Q78E
B15: hybrid antibody 102E9H4 (antibody, human IgG1, kappa, V domains shown)
VH: B8 VH with E10D, S17T, Q43K, V69A, D73E, T74S, V76A, Y80F, S85N, Y95F
VL: B8 VL with D17E, Q78E

What follows are binders tested against CD303 ectodomain (human) (UniProt Q8WTT0) (assay: ELISA on coated CD303 ectodomain, 122A2 and derivatives, 1.75 to 10 ng/mL).

binding, binds:
B1
B2
B3
B4
B5
B6
B7

These binders were tested against CD303 ectodomain (human) (UniProt Q8WTT0) (assay: ELISA on coated CD303 ectodomain (basis of the selection for cytometry)).

binding, binds:
B2

The binders below were run against CD303 ectodomain (human) (UniProt Q8WTT0) (assay: ELISA on coated CD303 ectodomain).

binding, binds:
B3
B4
B5
B7

What follows are binders tested against CD303 ectodomain (human) (UniProt Q8WTT0) (assay: ELISA on coated CD303 ectodomain, HEK-293 supernatants).

binding, binds:
B1
B2
B3
B4
B5
B6
B7
B8
B9
B10
B11
B12
B13
B14
B15

What follows are binders tested against CD303 ectodomain (human) (UniProt Q8WTT0) (assay: ELISA on coated CD303 ectodomain, 102E9 derivatives).

binding, binds:
B8
B10
B12
B13
